The campaign covered roughly 320,000 compounds. About 22,000 (6.9%) were called active. This list was built around the results that the source calls inconclusive (neither active nor inactive); the mix of calls is not that of the screen. The call rests on the fitted dose curve; in most records, active means well fitted inhibition curve with a large enough effect; inconclusive means small, poorly fitted or top-dose-only effect, or another doubt; inactive means no such curve, though single readings can be large or run the other way. Potencies beside an inconclusive call are fits to weak or partial responses and may not hold up.
Experiment: Primary qHTS for delayed death inhibitors of the malarial parasite plastid, 96 hour incubation
Settings: P. falciparum luciferase reporter growth; series mostly up to 28.7 µM; activity change, negative = inhibition: at the top concentration
Procedure, shortened: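 Readout is luminescence from an integrated firefly luciferase in P. falciparum. Red cells, 2% hematocrit and 0.05% parasitemia final, were cultured with compound through two parasite generations (96 hours) at 37 C, 5% CO2.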
On the % scale 0 is the no-effect control and ±100 the full control effect; potency means the concentration at half of the fitted maximal effect.

Compound	activity change, negative = inhibition	Potency
CC(C)CC(=O)NC(=S)Nc1sc2c(c1C(N)=O)CCC2	inactive: 60.9%	–
CCC12C(=O)C(CC)(C(c3ccccc3)=C1c1ccccc1)[C@@H]1C(=O)N(c3ccccc3)C(=O)C12 (stereo partly drawn)	–	inconclusive: 4.15 µM [inhibitor, single point]
CCOc1cccc(C(=O)NC(=S)Nc2ccc(N3CCCC3)cc2)c1	–	inconclusive: 18.5 µM [inhibitor, single point]
CCSCCNC(=O)c1cc(-n2cnnc2)ccc1Cl	–	inconclusive: 9.28 µM [inhibitor, partial curve]
CCCSc1cc(N2CCCC2)nc(-c2ccccc2)n1	–	inconclusive: 5.22 µM [inhibitor, partial curve, poor fit]
CN(c1ccccc1)S(=O)(=O)c1nnc(NC(=O)COc2ccccc2)s1	–	inconclusive: 14.7 µM [inhibitor, partial curve, poor fit]
O=C(Nc1ncc2c(n1)-c1ccccc1CC2)c1ccccc1	inactive: 49%	–
Cc1ccc(-n2ncc3c(=O)n(CC(=O)N(C)C)cnc32)cc1C	–	inconclusive: 18.5 µM [inhibitor, single point]
O=C(NNC(=O)c1cc(OCC(F)(F)F)ccc1OCC(F)(F)F)c1cccc(C(F)(F)F)c1	–	inconclusive: 18.5 µM [inhibitor, single point]
CCOC(=O)[C@@H]1[C@H]2COc3ccccc3[C@H]2N2C(=O)N(c3ccc(OC)cc3)C(=O)[C@]12C	–	inconclusive: 1.17 µM [inhibitor, partial curve, poor fit]
CCOc1ncccc1C(=O)N1CCN(S(=O)(=O)c2ccccc2)CC1	inactive: 74.4%	–
CC(=O)c1cc(C(C)=O)c(C)nc1C	–	active: 1.85 µM
CC(c1ccccc1F)n1cc(C(=O)Nc2ccc3nc[nH]c3c2)nn1 (stereo not drawn)	–	inconclusive: 0.37 µM [inhibitor, full curve, poor fit]
Cc1ccccc1-c1cccc(CN2CCN(C)C(CCO)C2)c1 (stereo not drawn)	–	inconclusive: 18.5 µM [inhibitor, single point]
CC(C)CC(=O)NC(c1ccccc1)c1c(O)ccc2ccccc12 (stereo not drawn)	–	inconclusive: 18.5 µM [inhibitor, single point]
CCN1CCN(CC(O)COCc2cc(OC)c(OC)c(OC)c2)CC1 (stereo not drawn)	–	inconclusive: 8.28 µM [inhibitor, single point]
Cc1ccc(P(C)(=O)c2ccc(C)cc2)cc1	–	inconclusive: 0.0928 µM [inhibitor, full curve, poor fit]
Cc1occc1-c1nnc(SCC(=O)N2CCOCC2)n1Cc1ccco1	inactive: 0%	–
CC(=O)N1CCC2(CC1)CC(=O)c1cc(OCC(=O)NCc3ccc(C)cc3)ccc1O2	–	inconclusive: 1.47 µM [inhibitor, partial curve, poor fit]
Cc1ccc(NC(=O)c2nc[nH]c2C(=O)N2CCN(C(=O)OC(C)(C)C)CC2)cc1	–	inconclusive: 14.7 µM [inhibitor, single point]
Cc1cccc(C(=O)c2c(N)sc3c2CCC(C)C3)c1 (stereo not drawn)	–	inconclusive: 18.5 µM [inhibitor, single point]
NC(=O)Cn1cc(/C=N\NS(=O)(=O)c2ccc(F)cc2)c2ccccc21	–	inconclusive: 18.5 µM [inhibitor, single point]
CC1=Nn2c(nnc2-c2cc(-c3ccccc3)n[nH]2)SC1	–	inconclusive: 13.1 µM [inhibitor, single point]
CCN(CC)CCN(C(=O)/C=C/c1cccs1)c1nc2ccc(F)cc2s1	–	inconclusive: 18.5 µM [inhibitor, single point]
COc1ccc2c(c1)c1nnc(SCC(=O)N3CCCCC3C)nc1n2C (stereo not drawn)	–	active: 8.28 µM

Compound	activity change, negative = inhibition	Potency
O=C(CSc1nnnn1C1CCCCC1)N1CCCC1	–	inconclusive: 8.28 µM [inhibitor, partial curve]
COc1cc(CC(=O)OCC(=O)Nc2sccc2C(N)=O)cc(OC)c1OC	inactive: -3.84%	–
COc1cc(C(=O)NCC(=O)N/N=C/c2cccs2)cc(OC)c1OC	–	inconclusive: 7.38 µM [inhibitor, single point]
Cn1c(SCC(=O)NCc2ccco2)nc2ccccc2c1=O	inactive: -9.66%	–
CC(C)[C@H](NC(N)=O)C(=O)Nc1ccc(OCc2ccccc2)cc1	inactive: 97.6%	–
COc1ccc(C(=O)N2CCN(c3ccc(F)cc3)CC2)cc1S(=O)(=O)NC1CC1	inactive: 83.8%	–
Cc1nn(C)c2ncc(C(N)=O)c(Oc3cccnc3)c12	inactive: 2.27%	–
CCOC(=O)C1CCCN(C(=O)c2cc(=O)c3ccccc3o2)C1 (stereo not drawn)	inactive: 17.6%	–
Nc1cc(=O)[nH]c(SC/C=C/c2ccccc2)n1	inactive: 108%	–
Cc1cccc(C(=O)OCC(=O)N(C)c2ccccc2)c1C	inactive: 14.7%	–
CCN(CC)S(=O)(=O)c1ccc(NC(=O)c2ccc(N(C)S(C)(=O)=O)cc2)cc1	–	active: 8.28 µM
COc1ccc(CNCc2cc3c(cc2[N+](=O)[O-])OCO3)cc1	–	inconclusive: 11.7 µM [inhibitor, single point]
Cc1cccc(-n2c(=S)[nH]c3ccccc3c2=O)n1	–	inconclusive: 0.0093 µM [inhibitor, full curve, poor fit]
CCOc1ccc(C(=O)CSc2nnc3ccccn23)cc1	inactive: 35.9%	–
Cc1ccc(C(=O)NCC2CCCN2S(=O)(=O)c2cccs2)cc1C (stereo not drawn)	–	inconclusive: 18.5 µM [inhibitor, single point]
Cc1ccc2nc(Nc3nc(CSc4nnc(C)s4)cc(=O)[nH]3)nc(C)c2c1	–	active: 3.29 µM
CCOc1ccc(C2=NNC(c3cccnc3)=Nc3ccc(OC)cc32)cc1	–	inconclusive: 10.4 µM [inhibitor, single point]
CCOc1ccccc1N(CC(=O)N/N=C(\C)c1cccc(Br)c1)S(C)(=O)=O	–	inconclusive: 18.5 µM [inhibitor, single point]
CN(C)S(=O)(=O)c1ccc2oc(SCC(=O)c3c(N)n(C4CC4)c(=O)[nH]c3=O)nc2c1	–	inconclusive: 5.86 µM [inhibitor, partial curve, poor fit]
CCCOc1cccc(NC(=O)c2c(-c3ccccc3)noc2C)c1	inactive: -3.05%	–
CCOC(=O)C1CCN(C(=O)c2cccc(Cl)c2)CC1	–	active: 7.38 µM
Cn1cnnc1SCC(=O)Nc1ccc(Cl)c(S(=O)(=O)N2CCOCC2)c1	–	inconclusive: 16.5 µM [inhibitor, single point]
COc1ccc(NS(=O)(=O)c2cccc(C(=O)NNC(=O)c3ccc(O)c(Cl)c3)c2)cc1	–	inconclusive: 18.5 µM [inhibitor, single point]
O=C(CSc1nnc2ccccn12)N1CCc2ccccc2C1	inactive: 55.6%	–
O=C(CCn1c(=O)[nH]c2ccccc2c1=O)N1CC=C(c2ccccc2)CC1	inactive: -24.6%	–

22 entries from above, in markdown:

| Compound | activity change, negative = inhibition | Potency |
| --- | --- | --- |
| O=C(CSc1nnnn1C1CCCCC1)N1CCCC1 | – | inconclusive: 8.28 µM [inhibitor, partial curve] |
| COc1cc(CC(=O)OCC(=O)Nc2sccc2C(N)=O)cc(OC)c1OC | inactive: -3.84% | – |
| COc1cc(C(=O)NCC(=O)N/N=C/c2cccs2)cc(OC)c1OC | – | inconclusive: 7.38 µM [inhibitor, single point] |
| Cn1c(SCC(=O)NCc2ccco2)nc2ccccc2c1=O | inactive: -9.66% | – |
| CC(C)[C@H](NC(N)=O)C(=O)Nc1ccc(OCc2ccccc2)cc1 | inactive: 97.6% | – |
| COc1ccc(C(=O)N2CCN(c3ccc(F)cc3)CC2)cc1S(=O)(=O)NC1CC1 | inactive: 83.8% | – |
| Cc1nn(C)c2ncc(C(N)=O)c(Oc3cccnc3)c12 | inactive: 2.27% | – |
| CCOC(=O)C1CCCN(C(=O)c2cc(=O)c3ccccc3o2)C1 (stereo not drawn) | inactive: 17.6% | – |
| Nc1cc(=O)[nH]c(SC/C=C/c2ccccc2)n1 | inactive: 108% | – |
| Cc1cccc(C(=O)OCC(=O)N(C)c2ccccc2)c1C | inactive: 14.7% | – |
| CCN(CC)S(=O)(=O)c1ccc(NC(=O)c2ccc(N(C)S(C)(=O)=O)cc2)cc1 | – | active: 8.28 µM |
| COc1ccc(CNCc2cc3c(cc2[N+](=O)[O-])OCO3)cc1 | – | inconclusive: 11.7 µM [inhibitor, single point] |
| Cc1cccc(-n2c(=S)[nH]c3ccccc3c2=O)n1 | – | inconclusive: 0.0093 µM [inhibitor, full curve, poor fit] |
| CCOc1ccc(C(=O)CSc2nnc3ccccn23)cc1 | inactive: 35.9% | – |
| Cc1ccc(C(=O)NCC2CCCN2S(=O)(=O)c2cccs2)cc1C (stereo not drawn) | – | inconclusive: 18.5 µM [inhibitor, single point] |
| Cc1ccc2nc(Nc3nc(CSc4nnc(C)s4)cc(=O)[nH]3)nc(C)c2c1 | – | active: 3.29 µM |
| CCOc1ccc(C2=NNC(c3cccnc3)=Nc3ccc(OC)cc32)cc1 | – | inconclusive: 10.4 µM [inhibitor, single point] |
| CCOc1ccccc1N(CC(=O)N/N=C(\C)c1cccc(Br)c1)S(C)(=O)=O | – | inconclusive: 18.5 µM [inhibitor, single point] |
| CN(C)S(=O)(=O)c1ccc2oc(SCC(=O)c3c(N)n(C4CC4)c(=O)[nH]c3=O)nc2c1 | – | inconclusive: 5.86 µM [inhibitor, partial curve, poor fit] |
| CCCOc1cccc(NC(=O)c2c(-c3ccccc3)noc2C)c1 | inactive: -3.05% | – |
| CCOC(=O)C1CCN(C(=O)c2cccc(Cl)c2)CC1 | – | active: 7.38 µM |
| Cn1cnnc1SCC(=O)Nc1ccc(Cl)c(S(=O)(=O)N2CCOCC2)c1 | – | inconclusive: 16.5 µM [inhibitor, single point] |

Carrying on:

Compound	activity change, negative = inhibition	Potency
O=C(NCC(=O)N(c1cccc(F)c1)C(C(=O)NC1CCCC1)c1cccnc1)c1cccs1 (stereo not drawn)	inactive: -15.6%	–
C#C[C@]1(O)CC[C@H]2[C@@H]3CCC4=CC(=O)CCC4(C)[C@H]3CCC21C (stereo partly drawn)	–	inconclusive: 3.38 µM [inhibitor, partial curve]
O=C(Nc1ccccc1F)c1cc2nc(C(F)F)cc(C(F)F)n2n1	inactive: 114%	–
O=C(CCN1C(=O)c2ccccc2C1=O)N1CCCCCC1	–	inconclusive: 18.5 µM [inhibitor, single point]
O=C(NCc1cccnc1)c1cccc(S(=O)(=O)Nc2cccc(Cl)c2)c1	–	inconclusive: 18.5 µM [inhibitor, single point]
CC1(C2CC2)NC(=O)N(CC(=O)N2CCN(c3ccc(F)cc3)CC2)C1=O (stereo not drawn)	inactive: 5.59%	–
COc1cc(C(=O)NNC(=O)c2cccc(Cl)c2)ccc1OCC(=O)N1CCOCC1	–	inconclusive: 0.0294 µM [inhibitor, full curve, poor fit]
c1ccc(-c2nnnn2CCOCCn2nnnc2-c2ccccc2)cc1	–	inconclusive: 18.5 µM [inhibitor, single point]
COCCCn1c(-c2ccccc2Cl)n[nH]c1=S	–	active: 1.85 µM
Cc1ccc(NC(=S)N2CCc3[nH]c4ccccc4c3C2)cc1	inactive: 14.1%	–
CCOC(=O)c1nnn(-c2nonc2N)c1CSc1ccc(C)cc1	inactive: -8.22%	–
Cc1cc(=O)c2c(O)c(O)ccc2o1	inactive: 34.8%	–
C=CCNC(=O)c1cccc(C(F)(F)F)c1	inactive: 17.2%	–
c1ccc(-n2nnnc2Sc2ncnc3sc4c(c23)CCCC4)cc1	–	active: 1.65 µM
O=C(Nc1ccc2c(c1)N(S(=O)(=O)c1cccs1)CCC2)c1c(F)cccc1F	–	inconclusive: 11.7 µM [inhibitor, partial curve]
COc1ccc2[nH]c3c(c2c1)CCN1C(=O)N([C@@H](C)C(=O)NCc2ccc(F)cc2)C(=O)[C@]31C	–	inconclusive: 11.7 µM [inhibitor, single point]
Cc1nc(SCC(=O)Nc2ccc(CN3CCCC3)cc2)c2c(C)c(C)sc2n1	–	active: 13.1 µM
COc1cccc(NC(=O)Nc2ccc3c(c2)OCO3)c1	inactive: -3.36%	–
O=C(N/N=C/c1coc2ccccc2c1=O)c1cn(-c2ccccc2)nc1-c1ccc(F)cc1	inactive: -0.555%	–
COC(=O)[C@]1(C)N[C@H](c2ccc(-c3ccccc3)cc2)[C@@H]2C(=O)N(C)C(=O)[C@@H]21	–	inconclusive: 4.15 µM [inhibitor, single point]
CN(C(=O)C1CCC(CNS(=O)(=O)c2cccc3cccnc23)CC1)C1CCCCC1 (stereo not drawn)	–	inconclusive: 11.7 µM [inhibitor, partial curve]
CC(C)CCOc1ccc(C2(C)NC(=O)NC2=O)cc1 (stereo not drawn)	–	inconclusive: 14.7 µM [inhibitor, single point]
O=C(Nc1ccc2c(c1)OCO2)c1cc(-c2ccncc2)nc2ccccc12	–	inconclusive: 18.5 µM [inhibitor, partial curve, poor fit]
